Data taken from paper PMC11926245, “Structural recognition and stabilization of tyrosine hydroxylase by the J-domain protein DNAJC12” (Nature Communications, 2025).
Results are given in words; binding and its absence hold for the method and conditions named.

Amino acid sequences for entries named in this document (tags omitted). A change or cut given only in a name is not applied to a line headed by its entry. Chains listed by the source or under a name are the forms on record and can include a tag or linker.
Tyrosine hydroxylase, wild-type (hTH1) (P07101, form named): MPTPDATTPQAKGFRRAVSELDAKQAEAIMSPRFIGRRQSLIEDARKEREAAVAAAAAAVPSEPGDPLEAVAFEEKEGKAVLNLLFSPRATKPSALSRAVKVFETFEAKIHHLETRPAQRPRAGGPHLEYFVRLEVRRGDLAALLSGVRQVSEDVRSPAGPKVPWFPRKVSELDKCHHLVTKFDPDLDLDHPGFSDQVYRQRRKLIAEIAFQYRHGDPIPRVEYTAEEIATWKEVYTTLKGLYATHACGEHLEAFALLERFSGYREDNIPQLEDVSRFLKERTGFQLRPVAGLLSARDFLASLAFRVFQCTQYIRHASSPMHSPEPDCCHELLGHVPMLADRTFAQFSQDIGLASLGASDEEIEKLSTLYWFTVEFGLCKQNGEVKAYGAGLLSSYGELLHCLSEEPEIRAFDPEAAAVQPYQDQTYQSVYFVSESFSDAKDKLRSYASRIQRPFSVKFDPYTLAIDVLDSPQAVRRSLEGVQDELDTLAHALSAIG
UniProt O60884: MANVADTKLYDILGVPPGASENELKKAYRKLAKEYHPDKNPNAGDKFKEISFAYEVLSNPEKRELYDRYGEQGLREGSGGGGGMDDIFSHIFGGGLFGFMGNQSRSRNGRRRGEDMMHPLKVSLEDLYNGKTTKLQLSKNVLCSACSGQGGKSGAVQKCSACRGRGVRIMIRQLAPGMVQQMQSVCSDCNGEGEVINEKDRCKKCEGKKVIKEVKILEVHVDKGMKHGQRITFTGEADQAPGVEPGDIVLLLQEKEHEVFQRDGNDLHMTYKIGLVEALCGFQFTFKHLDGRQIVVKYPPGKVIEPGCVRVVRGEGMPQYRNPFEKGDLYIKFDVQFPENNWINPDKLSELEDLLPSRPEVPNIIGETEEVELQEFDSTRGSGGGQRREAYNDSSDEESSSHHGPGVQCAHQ
UniProt P25685: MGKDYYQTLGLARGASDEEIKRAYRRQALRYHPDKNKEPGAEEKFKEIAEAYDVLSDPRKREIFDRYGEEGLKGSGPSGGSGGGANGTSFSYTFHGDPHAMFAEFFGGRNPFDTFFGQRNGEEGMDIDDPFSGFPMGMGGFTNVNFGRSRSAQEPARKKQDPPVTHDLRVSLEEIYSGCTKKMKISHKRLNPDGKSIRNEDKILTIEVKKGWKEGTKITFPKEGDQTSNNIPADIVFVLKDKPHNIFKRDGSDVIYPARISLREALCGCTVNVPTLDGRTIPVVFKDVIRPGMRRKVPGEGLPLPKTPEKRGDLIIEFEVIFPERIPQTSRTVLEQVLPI

Biological target: Tyrosine hydroxylase, wild-type (hTH1) (human) (UniProt P07101)
Experiment: BLI; biotinylated TH or TH variant immobilised on streptavidin sensors; DNAJC12 or variant 0.01-4 μM in solution; PBS, 0.02% Tween-20, 0.5 mg/mL BSA, 25 °C; responses fitted to a one-site hyperbola; both purified

Row | binding | Substance
1 | no binding | DNAJA2 (from UniProt O60884 1-412)
2 | no binding | DNAJB1 (from UniProt P25685 1-340)
